Data reported in patent US6995018.
These are yes or no findings as the source states them, for the method shown. Some results given as binding are weak or reduced against the parent protein; the word gives no strength.

By UniProt entry, the sequences of proteins in these tests, tags left out. Where a name states a change or a piece, a line headed by the entry shows the natural chain unless it says otherwise. Residues count along the entry.
UniProt P08603, residues 19-1231: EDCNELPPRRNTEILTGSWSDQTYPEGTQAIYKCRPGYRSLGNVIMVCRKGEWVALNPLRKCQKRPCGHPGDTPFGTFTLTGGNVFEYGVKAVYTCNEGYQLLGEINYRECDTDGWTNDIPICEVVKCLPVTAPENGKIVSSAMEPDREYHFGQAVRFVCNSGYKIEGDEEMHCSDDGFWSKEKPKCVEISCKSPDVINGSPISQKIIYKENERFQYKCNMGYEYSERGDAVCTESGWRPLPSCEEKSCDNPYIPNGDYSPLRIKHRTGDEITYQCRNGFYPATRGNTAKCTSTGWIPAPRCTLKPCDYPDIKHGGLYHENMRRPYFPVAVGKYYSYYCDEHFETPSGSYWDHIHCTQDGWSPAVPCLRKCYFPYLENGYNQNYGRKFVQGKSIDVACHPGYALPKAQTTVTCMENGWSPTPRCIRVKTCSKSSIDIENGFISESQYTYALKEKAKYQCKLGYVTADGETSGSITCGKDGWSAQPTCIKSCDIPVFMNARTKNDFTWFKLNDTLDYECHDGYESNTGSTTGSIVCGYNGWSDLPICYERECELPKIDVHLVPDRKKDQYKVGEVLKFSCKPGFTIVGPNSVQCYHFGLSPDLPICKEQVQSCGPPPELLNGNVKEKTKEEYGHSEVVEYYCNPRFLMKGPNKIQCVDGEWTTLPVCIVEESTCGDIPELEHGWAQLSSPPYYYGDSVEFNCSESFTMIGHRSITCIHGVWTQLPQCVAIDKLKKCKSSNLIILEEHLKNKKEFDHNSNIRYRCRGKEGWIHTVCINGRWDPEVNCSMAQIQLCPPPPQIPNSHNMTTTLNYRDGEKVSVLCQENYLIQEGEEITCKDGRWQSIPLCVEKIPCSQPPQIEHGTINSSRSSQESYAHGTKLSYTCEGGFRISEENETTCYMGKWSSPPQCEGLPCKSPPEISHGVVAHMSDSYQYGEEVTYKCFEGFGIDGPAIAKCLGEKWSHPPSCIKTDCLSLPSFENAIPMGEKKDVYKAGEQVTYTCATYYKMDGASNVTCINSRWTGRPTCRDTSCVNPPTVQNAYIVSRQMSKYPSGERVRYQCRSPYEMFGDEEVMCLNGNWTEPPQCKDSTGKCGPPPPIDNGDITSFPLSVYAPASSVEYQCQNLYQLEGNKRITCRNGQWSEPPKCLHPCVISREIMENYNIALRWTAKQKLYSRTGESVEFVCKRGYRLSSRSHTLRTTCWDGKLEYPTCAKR
UniProt P43406: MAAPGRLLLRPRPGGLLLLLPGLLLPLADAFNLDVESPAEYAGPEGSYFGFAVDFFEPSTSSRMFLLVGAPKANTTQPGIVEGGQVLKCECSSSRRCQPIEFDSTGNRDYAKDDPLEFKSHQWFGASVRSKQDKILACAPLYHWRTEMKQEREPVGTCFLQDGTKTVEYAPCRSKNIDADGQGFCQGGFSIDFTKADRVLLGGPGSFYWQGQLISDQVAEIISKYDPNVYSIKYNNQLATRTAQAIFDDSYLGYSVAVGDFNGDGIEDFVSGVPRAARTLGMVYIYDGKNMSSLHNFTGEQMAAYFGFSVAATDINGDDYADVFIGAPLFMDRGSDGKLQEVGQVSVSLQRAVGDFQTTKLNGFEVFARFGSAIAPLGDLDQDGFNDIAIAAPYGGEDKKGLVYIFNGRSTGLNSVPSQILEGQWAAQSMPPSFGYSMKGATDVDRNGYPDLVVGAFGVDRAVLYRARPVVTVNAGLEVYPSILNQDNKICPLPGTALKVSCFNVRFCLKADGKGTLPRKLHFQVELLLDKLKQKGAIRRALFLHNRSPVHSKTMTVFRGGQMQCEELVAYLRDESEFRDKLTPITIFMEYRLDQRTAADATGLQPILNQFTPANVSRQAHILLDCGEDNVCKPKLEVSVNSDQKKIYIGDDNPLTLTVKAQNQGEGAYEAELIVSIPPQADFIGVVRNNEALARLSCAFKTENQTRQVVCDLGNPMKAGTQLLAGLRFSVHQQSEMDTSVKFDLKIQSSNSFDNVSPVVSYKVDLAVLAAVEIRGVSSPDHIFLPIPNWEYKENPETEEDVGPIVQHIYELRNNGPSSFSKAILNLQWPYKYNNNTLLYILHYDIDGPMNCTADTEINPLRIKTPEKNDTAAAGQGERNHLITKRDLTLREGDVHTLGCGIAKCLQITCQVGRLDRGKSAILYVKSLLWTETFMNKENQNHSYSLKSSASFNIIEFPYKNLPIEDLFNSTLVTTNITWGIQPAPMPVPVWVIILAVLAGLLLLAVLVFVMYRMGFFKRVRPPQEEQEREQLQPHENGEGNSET
UniProt O54890: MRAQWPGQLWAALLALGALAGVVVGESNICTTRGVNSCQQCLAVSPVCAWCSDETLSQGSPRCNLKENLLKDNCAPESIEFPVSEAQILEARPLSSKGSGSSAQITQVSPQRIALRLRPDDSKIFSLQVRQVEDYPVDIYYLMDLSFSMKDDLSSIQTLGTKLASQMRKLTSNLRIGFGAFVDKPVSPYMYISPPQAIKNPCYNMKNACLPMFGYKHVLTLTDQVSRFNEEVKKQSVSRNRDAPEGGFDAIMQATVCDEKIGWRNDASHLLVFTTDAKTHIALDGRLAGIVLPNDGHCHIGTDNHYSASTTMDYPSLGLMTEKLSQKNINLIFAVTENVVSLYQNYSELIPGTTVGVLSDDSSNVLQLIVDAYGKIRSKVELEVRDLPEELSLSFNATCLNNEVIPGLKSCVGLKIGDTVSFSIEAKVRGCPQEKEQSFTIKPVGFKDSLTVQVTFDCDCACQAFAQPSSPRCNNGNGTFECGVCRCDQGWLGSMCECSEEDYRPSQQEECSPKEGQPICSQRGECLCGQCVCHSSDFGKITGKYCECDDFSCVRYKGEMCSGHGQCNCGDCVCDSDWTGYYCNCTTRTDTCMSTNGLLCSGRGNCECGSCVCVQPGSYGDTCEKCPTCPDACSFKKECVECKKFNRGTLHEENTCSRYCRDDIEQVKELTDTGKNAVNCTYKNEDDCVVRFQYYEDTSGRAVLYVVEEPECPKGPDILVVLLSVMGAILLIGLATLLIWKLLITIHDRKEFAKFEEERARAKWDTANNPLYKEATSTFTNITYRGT

Tests used:
[1] = target: human complement Factor H (human) (UniProt P08603); assay: steady state fluorescence, titration of purified human Factor H with rDMP1
[2] = target: human complement Factor H (human) (UniProt P08603); assay: steady state tryptophan fluorescence quenching, titration of Factor H
[3] = target: T1, CD44 on murine erythroleukemia (MEL) cells (murine (MEL cells)) (UniProt P15379); assay: inferred from MEL cell complement lysis assay with antiserum to CD44
T1 sequence (looked up): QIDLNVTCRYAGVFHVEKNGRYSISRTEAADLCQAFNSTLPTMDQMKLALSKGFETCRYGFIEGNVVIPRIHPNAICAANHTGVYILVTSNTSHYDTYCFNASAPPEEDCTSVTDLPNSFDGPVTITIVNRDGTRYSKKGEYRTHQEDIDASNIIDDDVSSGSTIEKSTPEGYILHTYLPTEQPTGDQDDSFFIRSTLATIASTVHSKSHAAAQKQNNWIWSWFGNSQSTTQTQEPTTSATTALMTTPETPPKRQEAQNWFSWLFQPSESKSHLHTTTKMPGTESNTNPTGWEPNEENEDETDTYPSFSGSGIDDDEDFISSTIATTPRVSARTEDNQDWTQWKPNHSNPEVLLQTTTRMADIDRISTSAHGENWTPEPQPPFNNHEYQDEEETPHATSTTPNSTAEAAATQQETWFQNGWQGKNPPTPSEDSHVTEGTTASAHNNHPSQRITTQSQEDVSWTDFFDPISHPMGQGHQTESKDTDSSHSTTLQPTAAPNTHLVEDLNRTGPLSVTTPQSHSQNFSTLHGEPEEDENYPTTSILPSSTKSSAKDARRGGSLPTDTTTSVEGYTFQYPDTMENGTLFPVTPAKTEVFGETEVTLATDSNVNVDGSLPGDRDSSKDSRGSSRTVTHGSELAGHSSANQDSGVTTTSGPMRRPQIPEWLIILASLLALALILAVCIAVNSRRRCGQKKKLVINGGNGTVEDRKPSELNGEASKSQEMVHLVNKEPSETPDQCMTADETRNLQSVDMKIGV

[4] = target: αVβ3 integrin on murine erythroleukemia (MEL) cells (murine (MEL cells)) (UniProt P43406+O54890); assay: inferred from MEL cell complement lysis assay with GRGDS peptide and αVβ3 antiserum
[5] = target: human complement Factor H (human) (UniProt P08603); assay: summary of the experiments of section II

binding [1]: binds
binding [2]: binds
binding [3]: binds
binding [4]: binds
binding [5]: binds
B1: recombinant dentin matrix protein 1 (rDMP1) (ligand)
chain: LPVTRYQNNESEDSEEWKGHLAQAPTPPLESSESSEGSKVSSEEQANEDPSDSTQSEEGLGSDDHQYIYRLAGGFSRSTGKGGDDKDDDEDDSGDDTFGDDDSGPGPKDRQEGGNSRLGSDEDSDDTIQASEESAPQGQDSAQDTTSESRELDNEDRVDSKPEGGDSTQESESEEHWVGGGSDGESSHGDGSELDDEGMQSDDPESIRSERGNSRMNSAGMKSKESGENSEQANTQDSGGSQLLEHPSRKIFRKSRISEEDDRSELDDNNTMEEVKSDSTENSNSRDTGLSQPRRDSKGDSQEDSKENLSQEESQNVDGPSSESSQEANLSSQENSSESQEEVVSESRGDNPDPTTSYVEDQEDSDSSEEDSSHTLSHSKSESREEQADSESSESLNFSEESPESPEDENSSSQEGLQSHSSSAESQSEESHSEEDDSDSQDSSRSKEDSNSTESKSSSEEDGQLKNIEIESRKLTVDAYHNKPIGDQDDNDCQDGY
